These are yes or no findings as the source states them, for the method shown. Some results given as binding are weak or reduced against the parent protein; the word gives no strength.
Target: T1, Heat shock factor 1 (Hsf1) (human), Q00613
T1 chain: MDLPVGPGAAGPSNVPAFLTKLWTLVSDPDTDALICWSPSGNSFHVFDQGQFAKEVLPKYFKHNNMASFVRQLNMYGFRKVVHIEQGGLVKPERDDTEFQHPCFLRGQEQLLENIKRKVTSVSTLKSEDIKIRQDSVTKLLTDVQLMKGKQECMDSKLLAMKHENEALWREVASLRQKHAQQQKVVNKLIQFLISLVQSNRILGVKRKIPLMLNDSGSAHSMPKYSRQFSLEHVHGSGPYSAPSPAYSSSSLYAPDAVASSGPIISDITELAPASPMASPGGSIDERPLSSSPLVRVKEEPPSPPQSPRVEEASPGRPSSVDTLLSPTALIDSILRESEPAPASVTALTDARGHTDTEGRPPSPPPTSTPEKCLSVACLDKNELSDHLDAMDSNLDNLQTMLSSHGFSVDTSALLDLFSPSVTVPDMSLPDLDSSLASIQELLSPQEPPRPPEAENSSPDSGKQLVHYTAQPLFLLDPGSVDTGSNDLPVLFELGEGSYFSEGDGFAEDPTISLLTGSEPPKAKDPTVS
Test: non-reducing SDS-PAGE after NEM quenching
Details: remark: other sources report otherwise

binding: binds
B1: Heat shock factor 1 (Hsf1), Q00613 1-529 (natural protein)
chain: MDLPVGPGAAGPSNVPAFLTKLWTLVSDPDTDALICWSPSGNSFHVFDQGQFAKEVLPKYFKHNNMASFVRQLNMYGFRKVVHIEQGGLVKPERDDTEFQHPCFLRGQEQLLENIKRKVTSVSTLKSEDIKIRQDSVTKLLTDVQLMKGKQECMDSKLLAMKHENEALWREVASLRQKHAQQQKVVNKLIQFLISLVQSNRILGVKRKIPLMLNDSGSAHSMPKYSRQFSLEHVHGSGPYSAPSPAYSSSSLYAPDAVASSGPIISDITELAPASPMASPGGSIDERPLSSSPLVRVKEEPPSPPQSPRVEEASPGRPSSVDTLLSPTALIDSILRESEPAPASVTALTDARGHTDTEGRPPSPPPTSTPEKCLSVACLDKNELSDHLDAMDSNLDNLQTMLSSHGFSVDTSALLDLFSPSVTVPDMSLPDLDSSLASIQELLSPQEPPRPPEAENSSPDSGKQLVHYTAQPLFLLDPGSVDTGSNDLPVLFELGEGSYFSEGDGFAEDPTISLLTGSEPPKAKDPTVS
